No constants are given. Whether binding was seen depends on the method and setting. Binding seen in cells or lysates may run through a third protein. Where a sequence is shown, tags or fusion partners need not be part of it.
Molecular target: T1, BRAT1-3xFlag (Bromodomain and ATPase domain-containing protein 1, AT1G05910) (Arabidopsis thaliana) (UniProt F4IAE9)
T1 sequence: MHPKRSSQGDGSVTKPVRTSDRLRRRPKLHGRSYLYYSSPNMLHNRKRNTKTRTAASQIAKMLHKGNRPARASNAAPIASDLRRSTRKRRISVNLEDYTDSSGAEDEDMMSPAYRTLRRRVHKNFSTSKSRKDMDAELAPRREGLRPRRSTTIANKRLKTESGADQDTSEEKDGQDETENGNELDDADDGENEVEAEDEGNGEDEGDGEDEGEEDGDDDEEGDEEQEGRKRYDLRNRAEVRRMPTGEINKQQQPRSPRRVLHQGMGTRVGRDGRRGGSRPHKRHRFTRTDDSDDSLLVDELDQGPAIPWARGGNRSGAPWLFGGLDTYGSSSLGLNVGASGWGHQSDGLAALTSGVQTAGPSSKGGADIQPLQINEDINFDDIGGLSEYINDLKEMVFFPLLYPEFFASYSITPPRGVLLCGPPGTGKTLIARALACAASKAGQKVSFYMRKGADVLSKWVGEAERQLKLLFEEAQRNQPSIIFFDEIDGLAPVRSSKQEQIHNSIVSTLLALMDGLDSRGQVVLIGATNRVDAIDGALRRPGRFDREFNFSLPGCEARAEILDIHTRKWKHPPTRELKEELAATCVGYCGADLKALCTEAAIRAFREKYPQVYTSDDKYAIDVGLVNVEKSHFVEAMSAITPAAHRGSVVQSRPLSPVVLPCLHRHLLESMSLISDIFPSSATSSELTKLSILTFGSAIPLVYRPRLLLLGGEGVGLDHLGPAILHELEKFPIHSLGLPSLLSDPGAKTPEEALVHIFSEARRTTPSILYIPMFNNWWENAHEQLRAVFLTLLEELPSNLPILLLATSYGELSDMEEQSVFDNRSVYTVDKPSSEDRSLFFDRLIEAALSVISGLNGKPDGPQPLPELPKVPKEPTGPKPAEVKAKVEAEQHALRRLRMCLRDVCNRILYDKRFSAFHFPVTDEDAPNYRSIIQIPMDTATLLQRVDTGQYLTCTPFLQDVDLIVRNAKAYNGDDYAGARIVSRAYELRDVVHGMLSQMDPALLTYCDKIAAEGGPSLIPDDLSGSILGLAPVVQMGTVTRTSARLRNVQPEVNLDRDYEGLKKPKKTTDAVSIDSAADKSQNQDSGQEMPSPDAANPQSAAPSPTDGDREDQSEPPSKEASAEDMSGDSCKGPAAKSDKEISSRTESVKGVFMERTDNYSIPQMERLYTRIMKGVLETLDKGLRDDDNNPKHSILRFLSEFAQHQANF
Test: co-IP; Anti-Flag M2 Affinity Gel on lysate of plants from crosses carrying BRAT1-Flag and BRP1-Myc or ROS1-Myc, 4 °C 2.5 h, Lysis buffer; eluted with 3xFlag peptides; western blot

B1: ROS1-Myc (5-methylcytosine DNA glycosylase ROS1) (enzyme, UniProt Q9SJQ6 1-1393)
chain: MEKQRREESSFQQPPWIPQTPMKPFSPICPYTVEDQYHSSQLEERRFVGNKDMSGLDHLSFGDLLALANTASLIFSGQTPIPTRNTEVMQKGTEEVESLSSVSNNVAEQILKTPEKPKRKKHRPKVRREAKPKREPKPRAPRKSVVTDGQESKTPKRKYVRKKVEVSKDQDATPVESSAAVETSTRPKRLCRRVLDFEAENGENQTNGDIREAGEMESALQEKQLDSGNQELKDCLLSAPSTPKRKRSQGKRKGVQPKKNGSNLEEVDISMAQAAKRRQGPTCCDMNLSGIQYDEQCDYQKMHWLYSPNLQQGGMRYDAICSKVFSGQQHNYVSAFHATCYSSTSQLSANRVLTVEERREGIFQGRQESELNVLSDKIDTPIKKKTTGHARFRNLSSMNKLVEVPEHLTSGYCSKPQQNNKILVDTRVTVSKKKPTKSEKSQTKQKNLLPNLCRFPPSFTGLSPDELWKRRNSIETISELLRLLDINREHSETALVPYTMNSQIVLFGGGAGAIVPVTPVKKPRPRPKVDLDDETDRVWKLLLENINSEGVDGSDEQKAKWWEEERNVFRGRADSFIARMHLVQGDRRFTPWKGSVVDSVVGVFLTQNVSDHLSSSAFMSLASQFPVPFVPSSNFDAGTSSMPSIQITYLDSEETMSSPPDHNHSSVTLKNTQPDEEKDYVPSNETSRSSSEIAISAHESVDKTTDSKEYVDSDRKGSSVEVDKTDEKCRVLNLFPSEDSALTCQHSMVSDAPQNTERAGSSSEIDLEGEYRTSFMKLLQGVQVSLEDSNQVSPNMSPGDCSSEIKGFQSMKEPTKSSVDSSEPGCCSQQDGDVLSCQKPTLKEKGKKVLKEEKKAFDWDCLRREAQARAGIREKTRSTMDTVDWKAIRAADVKEVAETIKSRGMNHKLAERIQGFLDRLVNDHGSIDLEWLRDVPPDKAKEYLLSFNGLGLKSVECVRLLTLHHLAFPVDTNVGRIAVRLGWVPLQPLPESLQLHLLEMYPMLESIQKYLWPRLCKLDQKTLYELHYQMITFGKVFCTKSKPNCNACPMKGECRHFASAFASARLALPSTEKGMGTPDKNPLPLHLPEPFQREQGSEVVQHSEPAKKVTCCEPIIEEPASPEPETAEVSIADIEEAFFEDPEEIPTIRLNMDAFTSNLKKIMEHNKELQDGNMSSALVALTAETASLPMPKLKNISQLRTEHRVYELPDEHPLLAQLEKREPDDPCSYLLAIWTPGETADSIQPSVSTCIFQANGMLCDEETCFSCNSIKETRSQIVRGTILIPCRTAMRGSFPLNGTYFQVNEVFADHASSLNPINVPRELIWELPRRTVYFGTSVPTIFKGLSTEKIQACFWKGYVCVRGFDRKTRGPKPLIARLHFPASKLKGQQANLA
**Q.** How did the binding turn out when B1 was run?
**A.** no binding

Reference: PMC4899616
